According to PubChem BioAssay AID1347075 (National Center for Advancing Translational Sciences (NCATS), 2019):
The whole screen tested about 400,000 compounds, of which about 5,500 (1.4%) were called active. The inconclusive results got no clear call from the source; some entries with a clear call stand among them for comparison. The call rests on the fitted dose curve; in most records, active means well fitted cell-killing curve with a large enough effect; inconclusive means small, poorly fitted or top-dose-only effect, or effect the other way; inactive means flat fitted curve, though single readings scatter. A potency beside an inconclusive call is a rough fit, not a confirmed value.
On the % scale 0 is the no-effect control and ±100 the full control effect; potency means the concentration at half of the fitted maximal effect.

Test: qHTS assay for MDR1-selective chemotherapeutics: Primary screen using the parental adenocarcinoma cell KB-3-1; further: nearly all actives have a fitted effect of over 60% in size
Details: KB-3-1 viability, CellTiter-Glo ATP luminescence, 72 h; activity change, negative = cytotoxic: at 46.1 µM (top of the series)
Method in brief: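 Cytotoxicity in the drug-sensitive parental line KB-3-1 was scored as loss of CellTiter-Glo luminescence following 72 h incubation with compound. Values come from curve fitting of normalized concentration-response data.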
For CCn1c2c(c(=O)n3ncc(C(=O)N4CCN(c5ccc(Cl)cc5)CC4)c13)CN(Cc1ccc(OC)cc1)CC2, the Potency was inconclusive: 11.6 µM [cytotoxic, partial curve].
For Cc1ccc(C(=O)Nc2ccc(S(=O)(=O)N3CCCC3)cc2)cc1, the Potency was “inactive”.
In the case of CCn1cc(C(=O)N2CCN(c3ccccc3)CC2)c(=O)c2cc(S(=O)(=O)N3CCOCC3)ccc21, the Potency is reported as inconclusive: 32.6 µM [rising, single point].
With Cc1ccc(C(=O)CSc2nnc(CNc3ccc(C)cc3C)n2Cc2ccco2)cc1 the Potency was inconclusive: 20.6 µM [cytotoxic, partial curve, poor fit].
For COc1cccc(-c2nc3ccc(C(=O)NC(C)Cc4cccnc4)cc3o2)c1 (stereo not drawn), the Potency was “inactive”.
In the case of Cc1ccc(NCc2ccc(O)c3ncccc23)cc1C, the Potency is reported as inconclusive: 29.1 µM [cytotoxic, single point].
In the case of O=C1CSC2(C(=O)N(Cc3cccc(F)c3)c3ccccc32)N1c1cccc(C(F)(F)F)c1 (stereo not drawn), the Potency is reported as inconclusive: 23.1 µM [cytotoxic, single point].
In the case of CN(C)c1ccc(/C=C/c2c(F)cnc3ccccc23)cc1, the Potency is reported as active: 9.2 µM.
With Cc1ccc(C(=O)O/N=C\c2ccc(N3CCCCC3)c([N+](=O)[O-])c2)cc1 the Potency was inconclusive: 29.1 µM [cytotoxic, single point].
In the case of CN1C(=O)[C@@](O)(CC(=O)c2ccccc2)c2cc(Br)ccc21, the Potency is reported as inconclusive: 20.6 µM [cytotoxic, single point].
With CC(C)C[C@H]1CNC(=O)C(=O)N1C[C@@H]1CCCN1C[C@H](Cc1ccc(O)cc1)N1C[C@H](Cc2ccccc2)N(CC2CCCCC2)C(=O)C1=O the Potency was inconclusive: 29.1 µM [cytotoxic, single point].
With O=C(NCCc1ccc(F)cc1)Nc1ccc([N+](=O)[O-])cc1 the Potency was inconclusive: 29.1 µM [cytotoxic, single point].
In the case of Cc1ccccc1NC(=O)C(C)OC(=O)CCC(=O)c1ccccc1 (stereo not drawn), the Potency is reported as “inactive”.
With O=C(c1cccc([N+](=O)[O-])c1)N1CC2C3C=CC(C3)C2C1 (stereo not drawn) the Potency was inconclusive: 0.0073 µM [cytotoxic, full curve].
With O=C1C(Nc2ccccc2)=C/C(=N/S(=O)(=O)c2cccs2)c2ccccc21 the Potency was inconclusive: 25.9 µM [cytotoxic, single point].
For COc1ccc2c(c1)sc(N)[n+]2Cc1cc(C)cc2cccnc12, the Potency was active: 4.61 µM.
In the case of O=C(Nc1ccc(C(O)(C(F)(F)F)C(F)(F)F)cc1)c1ccc(Cl)c([N+](=O)[O-])c1, the Potency is reported as inconclusive: 16.4 µM [cytotoxic, single point].
For O=C(Nc1ccc2c(c1)OCO2)c1ccc(Br)c(S(=O)(=O)N2CCCC2)c1, the Potency was inconclusive: 14.6 µM [cytotoxic, partial curve, poor fit].
In the case of COc1ccc(NS(=O)(=O)c2cccc3ccccc23)cc1, the Potency is reported as inconclusive: 29.1 µM [cytotoxic, single point].
For CCN1CCN(CNC(=O)c2cnccn2)CC1, the Potency was inconclusive: 32.6 µM [cytotoxic, single point].
For CCOc1ccc(-n2c(O)c(/C=N/NC(=O)C3COc4ccccc4O3)c3ccccc3c2=O)cc1 (stereo not drawn), the Potency was inconclusive: 32.6 µM [cytotoxic, single point].
With Cc1ccccc1NC(=S)NCCc1ccccc1 the Potency was “inactive”.
For COc1ccc(CNC(=O)C2CCN(C(=O)Cc3ccccc3)CC2)cc1, the Potency was inconclusive: 8.2 µM [rising, partial curve, poor fit].
For O=C(CN1C(=O)c2ccccc2C1=O)Nc1cc([N+](=O)[O-])ccc1O, the Potency was inconclusive: 29.1 µM [cytotoxic, partial curve, poor fit].
With COc1ccc(CN(C)CC(O)COc2ccc(-c3ccccc3)cc2)cc1OC (stereo not drawn) the Potency was inconclusive: 29.1 µM [cytotoxic, single point].
For CCc1ccc(NC(=O)C2=CC(c3cccs3)=NS(=O)(=O)N2C)cc1, the Potency was inconclusive: 29.1 µM [cytotoxic, single point].
For Cc1c(-n2c(SCC(C)C)nc3ccccc3c2=O)c(=O)n(-c2ccccc2)n1C, the Potency was “inactive”.
In the case of Cc1onc(-c2ccccc2Cl)c1C(=O)Nc1sc2c(c1C(N)=O)CCC(C)C2 (stereo not drawn), the Potency is reported as inconclusive: 23.1 µM [cytotoxic, single point].
For O=C(Cc1ccc(Br)cc1)N1CCOCC1, the Potency was inconclusive: 0.461 µM [rising, partial curve].
For CCOc1cc(C)c(C(C)C)cc1S(=O)(=O)n1cnc(C)c1, the Potency was inconclusive: 18.4 µM [cytotoxic, single point].
With O=C(CCn1cccn1)N1CCCC(Nc2ccc(F)c(F)c2)C1 (stereo not drawn) the Potency was inconclusive: 29.1 µM [cytotoxic, single point].
In the case of O=C(CSc1nnc(-c2ccccc2O)n1Cc1ccccc1)NNC(=O)c1ccccc1O, the Potency is reported as inconclusive: 25.9 µM [cytotoxic, single point].
In the case of COc1ccc(C2CC(c3ccccc3)=NN2c2ccc(/C=N/NC(=O)c3ccncc3)cc2)cc1 (stereo not drawn), the Potency is reported as inconclusive: 16.4 µM [cytotoxic, single point].
In the case of CC1CC(N(C(=O)c2ccc(Cl)cc2)c2ccccc2)c2ccccc2N1C(=O)c1ccco1 (stereo not drawn), the Potency is reported as inconclusive: 29.1 µM [cytotoxic, single point].
For O=C(NCc1ccccn1)c1ccc(OC2CCN(Cc3ccc(Cl)s3)CC2)cc1, the Potency was inconclusive: 23.1 µM [cytotoxic, single point].
For CC(=O)NC1=NN(C(C)=O)C(C)(c2ccc(Cl)s2)S1 (stereo not drawn), the Potency was inconclusive: 6.51 µM [cytotoxic, full curve, poor fit].
For CN(C)C(=S)N=c1ssc(=S)n1Cc1ccccc1, the Potency was inconclusive: 0.58 µM [cytotoxic, full curve, poor fit].
For COc1ccc(-c2c[n+]3c(n2-c2ccccc2)CCCCC3)cc1, the Potency was active: 9.2 µM.
With CCOc1cc(-c2noc(-c3ccncc3)n2)cc(Br)c1OC the activity change, negative = cytotoxic was inconclusive: -32.5% [cytotoxic].
For Cc1c(C(=O)NCc2cccc(C(F)(F)F)c2)sc(=O)n1Cc1cccc(F)c1, the Potency was inconclusive: 29.1 µM [cytotoxic, single point].
With Cc1cn([C@@H](CCCCNC(=O)OC(C)(C)C)C(=O)NCCCCCCCCCCC(=O)N2CCN(C(=O)OC(C)(C)C)CC2)nn1 the Potency was inconclusive: 13 µM [cytotoxic, single point].
In the case of CN(Cc1ccccc1)C(=O)COC(=O)c1cc(=O)c2ccccc2o1, the Potency is reported as inconclusive: 16.4 µM [cytotoxic, partial curve, poor fit].
In the case of CCCCN(C)C(=O)CSc1nc2ccccc2nc1Cc1ccc(C)cc1, the Potency is reported as inconclusive: 20.6 µM [cytotoxic, single point].
In the case of Cc1cc(C)c2c(c1)/C(=C/C(=O)c1ccc(Br)s1)C(=O)N2, the Potency is reported as active: 18.4 µM.
In the case of Cc1cc(NC(=O)CSCC(=O)Nc2nc3c(C)cccc3s2)no1, the Potency is reported as inconclusive: 9.2 µM [rising, partial curve, poor fit].
With Cc1cc(NC(=O)c2ccccc2)sc1C the Potency was inconclusive: 18.4 µM [cytotoxic, single point].
For Brc1ccc(-c2ccc(/C=N/Nc3nncc(-c4ccccc4)n3)o2)cc1, the Potency was inconclusive: 20.6 µM [cytotoxic, partial curve, poor fit].
In the case of O=C(Nc1ccc(Cl)cc1)c1ccc(-n2cccn2)c([N+](=O)[O-])c1, the Potency is reported as inconclusive: 20.6 µM [cytotoxic, partial curve].
For COc1ccccc1N1CCN(C(=O)CSc2ncnc3scc(-c4ccccc4)c23)CC1, the Potency was inconclusive: 20.6 µM [cytotoxic, single point].
With COc1ccc(NC(=O)Cc2nnc(SCC(=O)Nc3ccc(F)cc3)n2C)cc1 the Potency was “inactive”.
In the case of COC(=O)C(NC(=O)c1ccccc1C)(Nc1ncc(S(=O)(=O)c2ccc([N+](=O)[O-])cc2)s1)C(F)(F)F (stereo not drawn), the Potency is reported as inconclusive: 29.1 µM [cytotoxic, single point].
With Cc1cccnc1NC(=O)c1cccc(S(=O)(=O)N2CCN(c3ccc(F)cc3)CC2)c1 the Potency was active: 20.6 µM.
For COc1ccccc1C(=O)Nc1nnc2n1CCS2, the Potency was “inactive”.
With CC(C)CC(C(=O)NC1CCCCC1)N(Cc1cccs1)C(=O)c1snc(C(N)=O)c1N (stereo not drawn) the Potency was inconclusive: 29.1 µM [cytotoxic, single point].
For COc1ccc(NC(=O)Cc2ccc(C)c(C)c2)cc1S(=O)(=O)N1CCCCC1, the Potency was inconclusive: 20.6 µM [cytotoxic, partial curve, poor fit].
In the case of Cc1cc(Nc2ccc(Br)cc2F)n2nc(C)nc2n1, the Potency is reported as inconclusive: 23.1 µM [cytotoxic, partial curve, poor fit].
For CCCCN(Cc1ccccc1)S(=O)(=O)c1cc2c(cc1Br)CC(C)N2C(C)=O (stereo not drawn), the Potency was inconclusive: 29.1 µM [cytotoxic, single point].
For Cc1ccc(NC(=O)Cn2cccc2C2=NC(c3ccccc3)CO2)cc1C (stereo not drawn), the Potency was inconclusive: 11.6 µM [cytotoxic, partial curve, poor fit].
In the case of Cc1cccc(N(C)S(=O)(=O)c2cc3[nH]c(=O)c(=O)[nH]c3cc2C)c1, the Potency is reported as inconclusive: 0.0065 µM [cytotoxic, full curve].
For O=C(Nc1cccc(F)c1)C1CCCN(S(=O)(=O)c2ccccc2)C1 (stereo not drawn), the Potency was inconclusive: 29.1 µM [cytotoxic, single point].
For CCOc1ccc(N/C=C/C(=O)c2ccccc2)c([N+](=O)[O-])c1, the Potency was active: 16.4 µM.
With COc1cc(C(=O)OCC(C)=O)ccc1OCc1c(C)noc1C the Potency was active: 14.6 µM.
With CCCc1cc(=O)n2[nH]c(SCc3ccc(Cl)cc3)nc2n1 the Potency was inconclusive: 29.1 µM [cytotoxic, partial curve, poor fit].
